Measurements from paper PMC10781630, “Structural basis of Gabija anti-phage defence and viral immune evasion” (Nature, 2023).
No constants are given. Whether binding was seen depends on the method and setting. Some binding calls cover weakened binding; strength is not graded here. Tags and fused reporters may be left off the sequences shown.

T1: SUMO2-tagged GajAB complex (Bacillus cereus VD045), 4:4 (Bacillus cereus VD045) (UniProt J8H9C1+J8HQ06)
T1 sequence 1: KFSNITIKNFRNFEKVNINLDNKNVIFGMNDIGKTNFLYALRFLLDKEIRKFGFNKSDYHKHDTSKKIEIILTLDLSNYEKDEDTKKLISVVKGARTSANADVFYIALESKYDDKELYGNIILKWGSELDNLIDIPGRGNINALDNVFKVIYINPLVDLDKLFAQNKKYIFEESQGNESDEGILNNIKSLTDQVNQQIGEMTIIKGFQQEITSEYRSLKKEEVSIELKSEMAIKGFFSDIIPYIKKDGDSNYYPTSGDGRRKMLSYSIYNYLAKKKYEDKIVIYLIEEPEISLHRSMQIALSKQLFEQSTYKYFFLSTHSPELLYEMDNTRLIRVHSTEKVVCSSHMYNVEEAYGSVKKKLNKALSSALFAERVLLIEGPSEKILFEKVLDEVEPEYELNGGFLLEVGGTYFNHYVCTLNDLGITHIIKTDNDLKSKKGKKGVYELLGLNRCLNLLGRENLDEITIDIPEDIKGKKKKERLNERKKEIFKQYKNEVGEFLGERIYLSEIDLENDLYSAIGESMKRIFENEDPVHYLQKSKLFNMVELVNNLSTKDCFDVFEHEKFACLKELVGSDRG
T1 sequence 2: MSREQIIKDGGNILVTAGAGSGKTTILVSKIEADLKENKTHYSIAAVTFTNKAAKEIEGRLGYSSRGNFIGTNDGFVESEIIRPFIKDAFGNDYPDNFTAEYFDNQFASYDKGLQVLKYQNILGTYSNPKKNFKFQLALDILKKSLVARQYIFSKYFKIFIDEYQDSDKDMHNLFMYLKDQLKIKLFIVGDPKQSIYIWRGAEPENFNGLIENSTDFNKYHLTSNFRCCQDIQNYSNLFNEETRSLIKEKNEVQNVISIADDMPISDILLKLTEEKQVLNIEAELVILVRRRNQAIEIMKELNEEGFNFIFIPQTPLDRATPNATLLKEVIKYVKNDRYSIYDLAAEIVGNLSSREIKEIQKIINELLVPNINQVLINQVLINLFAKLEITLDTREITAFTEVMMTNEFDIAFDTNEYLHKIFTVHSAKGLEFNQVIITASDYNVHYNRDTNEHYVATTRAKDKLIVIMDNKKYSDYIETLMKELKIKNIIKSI

T2: 6×His-SUMO2-GajA (Bacillus cereus VD045), subunit of the SUMO2-tagged GajAB complex used for cryo-EM (Bacillus cereus VD045) (UniProt J8H9C1)
T2 sequence: T1 sequence 1

T3: Bacillus cereus VD045 GajB, untagged, co-expressed with tagged GajA (Bacillus cereus VD045) (UniProt J8HQ06)
T3 sequence: T1 sequence 2

T4: Bacillus cereus VD045 GajA, co-expressed with GajB, tag removed (subunit of the GajAB complex) (Bacillus cereus VD045) (UniProt J8H9C1)
T4 sequence: T1 sequence 1

B1: Bacillus phage Phi3T Gad1 (Gabija anti-defence 1) (natural protein)
chain: MKLIGIKTSNCFLVSDNIEGKRYFHSQLDELLFDGKRATETYKSDWFKLEKEPSVIEKQMPAKKINHRYELKEGFQESELTPKVIKASYIGEDSEYYEVKGLYDLKFEEIPQQNEKIEFEMNVIEEIDGELKLQSHNFNLNYNLLDRIQTHPMLLETKPCYLSQEESYKIIRNHIKANINPKFARITSDYDFCLTVVKVLELYKPHEYIVDLNAMYKRRKPKLEKRFQTKREVEIYKVAPKAYQSYPIVEPFSGKDVEDLKSNIKKFLDDLMAKINEPLVECKCCKGRGVILNEN
notes: Gad1, Bacillus phage Phi3T, 35 kDa; Eight copies stand in the 4:4:8 GajAB–Gad1 complex; source: E. coli, co-expressed with SUMO2-GajAB (pBAD vector), co-purified (Ni-NTA, SEC)
B2: Bacillus cereus VD045 GajB, untagged, co-expressed with tagged GajA (enzyme)
chain: T1 sequence 2
notes: GajB, Bacillus cereus VD045, IMG ID 2519684553; also called BcGajB; source: co-purified (Ni-NTA, SEC) or in lysate

What was measured:
[1] = target: T1, SUMO2-tagged GajAB complex (Bacillus cereus VD045), 4:4 (Bacillus cereus VD045); assay: SEC; co-expressed and co-purified; 16/600 S200 for SUMO2-tagged BcGajAB with or without Phi3T Gad1, 16/600 S300 for BcGajAB with or without Shewanella phage 1/4 Gad1; SDS–PAGE of the purified complexes; both purified
[2] = target: T2, 6×His-SUMO2-GajA (Bacillus cereus VD045), subunit of the SUMO2-tagged GajAB complex used for cryo-EM (Bacillus cereus VD045); assay: cryo-EM structure; SUMO2-GajAB–Gad1 (Phi3T) co-complex, 1 mg ml^-1, 2.57 Å D2 symmetry map; both purified
[3] = target: T1, SUMO2-tagged GajAB complex (Bacillus cereus VD045), 4:4 (Bacillus cereus VD045); assay: as above
[4] = target: T3, Bacillus cereus VD045 GajB, untagged, co-expressed with tagged GajA (Bacillus cereus VD045); assay: as above
[5] = target: T4, Bacillus cereus VD045 GajA, co-expressed with GajB, tag removed (subunit of the GajAB complex) (Bacillus cereus VD045); assay: crystal structure; co-expressed and co-purified GajAB, 3.0 Å; hanging drop, 18 °C, 100 mM HEPES-NaOH pH 7.5, 2.4% PEG-400, 2.2 M ammonium sulfate; both purified

| Binder | binding [1] | binding [2] | binding [3] | binding [4] | binding [5] |
| --- | --- | --- | --- | --- | --- |
| B1 | binds | binds | binds | binds weakly |  |
| B2 |  | binds |  |  | binds |
